Source: paper PMC11247741
Results are given in words; binding and its absence hold for the method and conditions named. Binding seen in cells or lysates may run through a third protein. Some binding calls cover weakened binding; strength is not graded here.

Sequences of proteins named here, by UniProt entry; tags and fusion partners are left off.
UniProt P52480: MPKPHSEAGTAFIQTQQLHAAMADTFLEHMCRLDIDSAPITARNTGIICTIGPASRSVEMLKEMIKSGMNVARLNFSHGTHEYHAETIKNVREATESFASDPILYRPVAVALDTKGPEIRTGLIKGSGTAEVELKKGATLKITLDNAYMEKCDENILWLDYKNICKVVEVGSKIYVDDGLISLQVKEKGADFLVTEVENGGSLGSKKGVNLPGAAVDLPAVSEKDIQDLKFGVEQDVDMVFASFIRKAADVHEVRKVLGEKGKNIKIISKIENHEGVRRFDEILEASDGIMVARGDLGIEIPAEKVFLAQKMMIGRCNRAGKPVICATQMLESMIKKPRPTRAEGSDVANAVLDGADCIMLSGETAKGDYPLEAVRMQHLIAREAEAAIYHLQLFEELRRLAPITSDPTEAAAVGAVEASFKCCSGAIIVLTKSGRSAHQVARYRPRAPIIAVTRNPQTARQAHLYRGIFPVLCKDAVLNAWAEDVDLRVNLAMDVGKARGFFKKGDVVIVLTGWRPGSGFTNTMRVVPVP

T1: Sirt2 (NAD-dependent deacetylase sirtuin-2), endogenous mouse (mouse (endogenous in liver and AML12)) (UniProt Q8VDQ8)
T1 sequence: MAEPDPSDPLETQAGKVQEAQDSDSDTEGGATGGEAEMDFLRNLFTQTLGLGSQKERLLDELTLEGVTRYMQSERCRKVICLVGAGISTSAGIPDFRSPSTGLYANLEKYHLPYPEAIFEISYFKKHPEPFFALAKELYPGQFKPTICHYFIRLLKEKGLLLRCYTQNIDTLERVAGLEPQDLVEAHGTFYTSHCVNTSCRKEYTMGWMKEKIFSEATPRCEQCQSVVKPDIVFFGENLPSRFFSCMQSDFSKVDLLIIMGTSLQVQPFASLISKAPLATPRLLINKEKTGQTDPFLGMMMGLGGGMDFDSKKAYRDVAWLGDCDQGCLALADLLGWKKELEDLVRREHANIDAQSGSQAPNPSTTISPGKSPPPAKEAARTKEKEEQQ


Legend:
[1] = target: T1, Sirt2 (NAD-dependent deacetylase sirtuin-2), endogenous mouse (mouse (endogenous in liver and AML12)); experiment: co-IP; endogenous proteins in AML12 cell lysate; IP with anti-PKM2 or anti-Sirt2 antibody, protein A/G beads, western blot; IP-lysis buffer 50 mM Tris pH 7.4, 150 mM NaCl, 0.1 mM EDTA, 20% glycerol, 0.2% NP-40, 0.1% SDS
[2] = target: PKM2 (M2 isoform of pyruvate kinase), endogenous mouse (mouse (endogenous in liver and AML12)) (UniProt P52480); experiment: as above

| binding [1] | binding [2] | Molecule |
| --- | --- | --- |
| binds | – | PKM2 (M2 isoform of pyruvate kinase), endogenous mouse (from UniProt P52480 1-531) |
| – | binds | Sirt2 (NAD-dependent deacetylase sirtuin-2), endogenous mouse (protein, UniProt Q8VDQ8-1 1-389) MAEPDPSDPLETQAGKVQEAQDSDSDTEGGATGGEAEMDFLRNLFTQTLGLGSQKERLLDELTLEGVTRYMQSERCRKVICLVGAGISTSAGIPDFRSPSTGLYANLEKYHLPYPEAIFEISYFKKHPEPFFALAKELYPGQFKPTICHYFIRLLKEKGLLLRCYTQNIDTLERVAGLEPQDLVEAHGTFYTSHCVNTSCRKEYTMGWMKEKIFSEATPRCEQCQSVVKPDIVFFGENLPSRFFSCMQSDFSKVDLLIIMGTSLQVQPFASLISKAPLATPRLLINKEKTGQTDPFLGMMMGLGGGMDFDSKKAYRDVAWLGDCDQGCLALADLLGWKKELEDLVRREHANIDAQSGSQAPNPSTTISPGKSPPPAKEAARTKEKEEQQ |
